Here are results for 38 targets from the supplement of paper PMC12067093, “Discovery and optimisation of a covalent ligand for TRIM25 and its application to targeted protein ubiquitination” (Chemical Science, 2025).

Amino acid sequences for entries named in this document (tags omitted). A change or cut given only in a name is not applied to a line headed by its entry.
UniProt Q9H967: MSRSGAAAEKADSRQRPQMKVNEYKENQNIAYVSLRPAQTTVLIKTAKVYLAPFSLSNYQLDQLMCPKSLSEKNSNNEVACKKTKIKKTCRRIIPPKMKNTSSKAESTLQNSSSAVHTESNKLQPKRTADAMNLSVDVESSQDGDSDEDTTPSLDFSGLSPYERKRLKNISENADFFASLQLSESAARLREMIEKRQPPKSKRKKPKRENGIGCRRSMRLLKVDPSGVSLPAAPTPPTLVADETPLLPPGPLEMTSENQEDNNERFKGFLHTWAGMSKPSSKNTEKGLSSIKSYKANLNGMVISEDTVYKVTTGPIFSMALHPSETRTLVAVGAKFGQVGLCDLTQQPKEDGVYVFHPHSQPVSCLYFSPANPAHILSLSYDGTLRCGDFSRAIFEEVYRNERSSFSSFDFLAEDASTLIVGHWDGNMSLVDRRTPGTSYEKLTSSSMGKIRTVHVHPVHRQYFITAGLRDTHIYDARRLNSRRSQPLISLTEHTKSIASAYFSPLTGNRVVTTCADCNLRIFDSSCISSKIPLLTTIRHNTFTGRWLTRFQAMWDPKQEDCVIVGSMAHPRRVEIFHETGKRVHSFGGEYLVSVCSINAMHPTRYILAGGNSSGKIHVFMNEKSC
UniProt P98170, whole entry, looked up: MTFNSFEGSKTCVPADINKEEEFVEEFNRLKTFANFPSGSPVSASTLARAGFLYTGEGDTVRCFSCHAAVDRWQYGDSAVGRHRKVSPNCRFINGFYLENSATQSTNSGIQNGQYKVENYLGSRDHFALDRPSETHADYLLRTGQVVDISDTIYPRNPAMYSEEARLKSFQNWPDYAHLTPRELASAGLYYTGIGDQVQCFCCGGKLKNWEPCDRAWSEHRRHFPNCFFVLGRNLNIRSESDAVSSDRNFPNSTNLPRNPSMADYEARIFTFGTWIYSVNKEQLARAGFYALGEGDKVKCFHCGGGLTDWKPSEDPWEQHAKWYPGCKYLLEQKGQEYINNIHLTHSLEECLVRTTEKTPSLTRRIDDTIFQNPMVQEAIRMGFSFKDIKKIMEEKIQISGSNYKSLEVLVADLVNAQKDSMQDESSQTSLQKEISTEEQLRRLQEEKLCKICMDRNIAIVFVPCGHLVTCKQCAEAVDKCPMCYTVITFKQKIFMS
UniProt O75717: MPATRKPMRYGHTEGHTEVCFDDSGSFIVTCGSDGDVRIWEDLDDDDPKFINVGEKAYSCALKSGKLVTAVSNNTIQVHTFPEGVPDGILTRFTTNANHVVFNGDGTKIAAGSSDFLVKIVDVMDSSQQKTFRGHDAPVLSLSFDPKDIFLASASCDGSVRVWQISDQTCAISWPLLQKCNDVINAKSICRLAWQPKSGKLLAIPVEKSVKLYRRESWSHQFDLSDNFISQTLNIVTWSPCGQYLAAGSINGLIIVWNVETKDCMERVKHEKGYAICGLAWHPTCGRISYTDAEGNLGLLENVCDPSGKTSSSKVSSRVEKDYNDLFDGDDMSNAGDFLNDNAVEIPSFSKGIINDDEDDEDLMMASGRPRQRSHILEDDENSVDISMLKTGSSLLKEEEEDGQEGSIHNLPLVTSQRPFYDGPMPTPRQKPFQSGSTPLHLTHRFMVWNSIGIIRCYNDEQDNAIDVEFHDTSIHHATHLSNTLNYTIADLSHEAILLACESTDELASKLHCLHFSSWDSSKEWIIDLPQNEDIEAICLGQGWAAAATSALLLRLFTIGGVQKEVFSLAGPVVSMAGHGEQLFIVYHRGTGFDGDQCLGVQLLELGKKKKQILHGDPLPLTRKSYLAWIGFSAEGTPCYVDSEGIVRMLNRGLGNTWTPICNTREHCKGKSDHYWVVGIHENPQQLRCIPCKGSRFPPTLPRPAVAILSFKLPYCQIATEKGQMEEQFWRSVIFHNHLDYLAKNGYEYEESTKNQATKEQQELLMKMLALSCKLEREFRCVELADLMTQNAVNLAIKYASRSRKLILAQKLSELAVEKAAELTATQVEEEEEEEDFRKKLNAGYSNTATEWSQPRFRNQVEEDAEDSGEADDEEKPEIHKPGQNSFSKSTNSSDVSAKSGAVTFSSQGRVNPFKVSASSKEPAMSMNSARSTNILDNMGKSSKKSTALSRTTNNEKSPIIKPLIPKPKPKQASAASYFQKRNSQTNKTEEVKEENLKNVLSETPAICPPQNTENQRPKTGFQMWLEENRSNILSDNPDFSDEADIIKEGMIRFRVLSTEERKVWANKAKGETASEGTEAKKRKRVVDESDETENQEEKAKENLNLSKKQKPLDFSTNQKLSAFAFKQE
UniProt Q6ZS81: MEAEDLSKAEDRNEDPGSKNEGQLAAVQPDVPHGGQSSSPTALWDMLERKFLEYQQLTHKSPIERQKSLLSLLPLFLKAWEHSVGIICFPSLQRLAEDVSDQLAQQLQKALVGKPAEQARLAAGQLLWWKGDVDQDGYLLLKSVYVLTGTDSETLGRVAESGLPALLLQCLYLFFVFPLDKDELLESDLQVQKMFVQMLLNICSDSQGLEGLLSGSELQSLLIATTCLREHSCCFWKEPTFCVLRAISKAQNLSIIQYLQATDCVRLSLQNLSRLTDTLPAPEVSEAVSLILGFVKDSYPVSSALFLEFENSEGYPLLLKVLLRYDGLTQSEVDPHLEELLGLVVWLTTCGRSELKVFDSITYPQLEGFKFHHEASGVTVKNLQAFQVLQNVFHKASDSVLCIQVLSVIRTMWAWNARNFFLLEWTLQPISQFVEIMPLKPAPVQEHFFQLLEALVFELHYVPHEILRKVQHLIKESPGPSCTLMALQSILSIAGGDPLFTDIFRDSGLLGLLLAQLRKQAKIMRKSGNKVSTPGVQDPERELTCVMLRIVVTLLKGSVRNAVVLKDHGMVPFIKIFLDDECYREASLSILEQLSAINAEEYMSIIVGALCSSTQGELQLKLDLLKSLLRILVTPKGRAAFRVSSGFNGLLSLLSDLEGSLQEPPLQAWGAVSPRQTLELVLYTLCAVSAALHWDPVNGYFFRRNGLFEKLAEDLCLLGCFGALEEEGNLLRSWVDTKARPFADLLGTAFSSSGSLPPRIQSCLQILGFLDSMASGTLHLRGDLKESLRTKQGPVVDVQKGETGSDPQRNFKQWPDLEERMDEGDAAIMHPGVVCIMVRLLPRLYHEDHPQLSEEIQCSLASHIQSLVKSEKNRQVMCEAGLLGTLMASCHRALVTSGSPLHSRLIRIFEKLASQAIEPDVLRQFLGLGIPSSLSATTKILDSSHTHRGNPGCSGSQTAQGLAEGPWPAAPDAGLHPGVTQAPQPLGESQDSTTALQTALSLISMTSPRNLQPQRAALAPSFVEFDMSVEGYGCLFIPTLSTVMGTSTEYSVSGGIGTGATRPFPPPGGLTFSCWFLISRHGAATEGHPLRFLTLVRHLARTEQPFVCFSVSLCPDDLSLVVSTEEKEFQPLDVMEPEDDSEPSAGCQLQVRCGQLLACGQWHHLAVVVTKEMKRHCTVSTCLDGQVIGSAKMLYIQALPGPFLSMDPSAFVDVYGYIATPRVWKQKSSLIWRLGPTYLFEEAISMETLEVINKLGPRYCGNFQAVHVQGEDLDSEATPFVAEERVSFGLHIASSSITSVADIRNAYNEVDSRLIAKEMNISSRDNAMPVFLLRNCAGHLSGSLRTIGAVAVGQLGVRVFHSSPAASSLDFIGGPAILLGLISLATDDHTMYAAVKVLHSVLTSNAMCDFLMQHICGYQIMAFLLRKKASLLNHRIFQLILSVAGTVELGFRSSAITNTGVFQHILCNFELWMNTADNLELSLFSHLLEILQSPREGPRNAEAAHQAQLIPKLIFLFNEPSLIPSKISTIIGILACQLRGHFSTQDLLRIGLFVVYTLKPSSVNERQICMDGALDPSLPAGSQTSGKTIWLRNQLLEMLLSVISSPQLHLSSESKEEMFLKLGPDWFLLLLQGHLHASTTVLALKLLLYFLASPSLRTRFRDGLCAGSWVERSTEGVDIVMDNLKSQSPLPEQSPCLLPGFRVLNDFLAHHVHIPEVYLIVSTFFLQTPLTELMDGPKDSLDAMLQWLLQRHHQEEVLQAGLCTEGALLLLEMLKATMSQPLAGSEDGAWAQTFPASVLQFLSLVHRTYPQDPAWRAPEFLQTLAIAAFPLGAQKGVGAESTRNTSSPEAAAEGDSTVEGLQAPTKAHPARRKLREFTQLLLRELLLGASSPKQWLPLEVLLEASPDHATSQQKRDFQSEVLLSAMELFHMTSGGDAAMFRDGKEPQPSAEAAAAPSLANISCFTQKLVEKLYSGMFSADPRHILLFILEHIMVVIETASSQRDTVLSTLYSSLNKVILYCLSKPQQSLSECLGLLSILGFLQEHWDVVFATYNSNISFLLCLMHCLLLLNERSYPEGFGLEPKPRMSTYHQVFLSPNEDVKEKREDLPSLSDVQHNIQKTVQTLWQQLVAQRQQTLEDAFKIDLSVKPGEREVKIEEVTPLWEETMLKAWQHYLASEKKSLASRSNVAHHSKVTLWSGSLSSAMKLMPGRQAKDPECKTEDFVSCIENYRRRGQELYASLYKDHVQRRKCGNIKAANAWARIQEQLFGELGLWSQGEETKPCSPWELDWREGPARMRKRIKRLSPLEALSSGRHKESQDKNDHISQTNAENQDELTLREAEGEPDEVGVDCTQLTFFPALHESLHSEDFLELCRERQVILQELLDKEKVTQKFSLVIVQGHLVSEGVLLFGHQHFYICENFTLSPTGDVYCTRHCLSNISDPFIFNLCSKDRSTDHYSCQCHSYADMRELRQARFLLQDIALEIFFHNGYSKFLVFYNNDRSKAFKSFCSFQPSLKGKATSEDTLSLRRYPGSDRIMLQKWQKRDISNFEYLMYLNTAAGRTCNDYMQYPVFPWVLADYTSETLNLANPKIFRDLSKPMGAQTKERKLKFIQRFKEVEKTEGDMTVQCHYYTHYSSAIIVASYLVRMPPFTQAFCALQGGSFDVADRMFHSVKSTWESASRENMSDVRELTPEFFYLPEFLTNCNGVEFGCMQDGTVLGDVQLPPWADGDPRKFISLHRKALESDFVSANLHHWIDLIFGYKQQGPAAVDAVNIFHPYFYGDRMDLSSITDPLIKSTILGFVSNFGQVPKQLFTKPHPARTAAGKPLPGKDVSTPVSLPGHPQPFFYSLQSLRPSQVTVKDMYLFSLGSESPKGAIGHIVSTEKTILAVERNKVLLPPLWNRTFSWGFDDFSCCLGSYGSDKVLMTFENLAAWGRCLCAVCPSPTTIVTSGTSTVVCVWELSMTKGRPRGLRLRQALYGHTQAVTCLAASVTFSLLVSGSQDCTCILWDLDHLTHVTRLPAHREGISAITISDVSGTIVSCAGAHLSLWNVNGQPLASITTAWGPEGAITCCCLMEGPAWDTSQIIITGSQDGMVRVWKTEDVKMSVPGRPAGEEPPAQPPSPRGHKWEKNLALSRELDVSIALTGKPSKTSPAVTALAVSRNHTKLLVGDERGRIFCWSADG
UniProt Q9NNW5: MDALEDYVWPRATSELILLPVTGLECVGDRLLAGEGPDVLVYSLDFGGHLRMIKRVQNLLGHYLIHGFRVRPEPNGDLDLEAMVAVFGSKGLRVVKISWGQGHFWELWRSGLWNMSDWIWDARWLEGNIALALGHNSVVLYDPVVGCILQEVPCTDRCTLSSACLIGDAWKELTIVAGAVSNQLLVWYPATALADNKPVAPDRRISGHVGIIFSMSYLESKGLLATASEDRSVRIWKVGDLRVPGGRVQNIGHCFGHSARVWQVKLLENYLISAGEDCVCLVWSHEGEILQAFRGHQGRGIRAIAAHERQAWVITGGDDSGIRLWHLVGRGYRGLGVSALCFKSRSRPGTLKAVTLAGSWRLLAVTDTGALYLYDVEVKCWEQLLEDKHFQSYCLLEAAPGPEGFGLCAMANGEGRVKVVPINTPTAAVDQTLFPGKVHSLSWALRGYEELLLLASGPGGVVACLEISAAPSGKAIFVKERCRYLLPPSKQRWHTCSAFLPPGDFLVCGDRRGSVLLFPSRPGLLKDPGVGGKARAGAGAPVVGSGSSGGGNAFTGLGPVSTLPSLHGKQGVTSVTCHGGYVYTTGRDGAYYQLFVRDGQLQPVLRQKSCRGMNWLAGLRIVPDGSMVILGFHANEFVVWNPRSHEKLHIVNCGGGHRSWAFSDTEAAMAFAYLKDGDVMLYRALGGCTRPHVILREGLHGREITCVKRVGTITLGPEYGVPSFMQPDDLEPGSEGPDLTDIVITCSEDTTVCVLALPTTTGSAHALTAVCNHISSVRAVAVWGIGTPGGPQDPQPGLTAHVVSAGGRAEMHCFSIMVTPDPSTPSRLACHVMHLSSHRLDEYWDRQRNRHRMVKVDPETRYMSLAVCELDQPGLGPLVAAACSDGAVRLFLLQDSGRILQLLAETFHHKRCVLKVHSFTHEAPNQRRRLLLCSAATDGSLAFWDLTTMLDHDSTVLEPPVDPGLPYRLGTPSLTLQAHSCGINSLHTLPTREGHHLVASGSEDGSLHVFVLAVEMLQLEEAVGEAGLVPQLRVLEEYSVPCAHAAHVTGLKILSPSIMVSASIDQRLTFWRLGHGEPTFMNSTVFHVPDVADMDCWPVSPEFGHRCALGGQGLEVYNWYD

Compound in the test: CC1Cc2ccccc2N1C(=O)C1CCCN(C1)C(=O)CCl (mixture of isomers) [TRIM25 ligand 11 (diastereomer mixture)]
Nature of the test: probe-labelled cysteine peptide fold change vs DMSO (competition) (log2 fold change); higher = less target engagement (more negative = stronger competition). To be noted: THP-1, incubation time: 4 h.

The other results are listed elsewhere or left out.
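Also: competitive chemoproteomic profiling in live THP-1 cells with an iodoacetamide desthiobiotin (IA-DTB) probe, comparing probe-labelled peptide intensities in compound-treated cells against DMSO-treated controls.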

Consider “WDR59_Q6PJI9_737_QLLESLLAHYCR (UniProt Q6PJI9)”, for which the “probe-labelled cysteine peptide fold change” value was 0.0591 (10 µM) and 0.228 (50 µM).

As for “WSB1_Q9Y6I7_66_LVPWSQCLQNFLLHGTK (UniProt Q9Y6I7)”, the “probe-labelled cysteine peptide fold change” value was -0.191 (10 µM) and -0.241 (50 µM).

As for “WNK4_Q96J92_412_EIIEGCIR (UniProt Q96J92)”, the “probe-labelled cysteine peptide fold change” value is -0.0738 (10 µM) and 0.113 (50 µM).

Turning to “WRAP53_Q9BUR4_519_LQLWWCGGAPDSSIPDDHQGEK (UniProt Q9BUR4)”, the “probe-labelled cysteine peptide fold change” value came to 0.0556 (10 µM) and 0.0478 (50 µM).

Consider “WDR70_Q9NW82_383_QAHDSGTDTSCVTFSYDGNVLASR (UniProt Q9NW82)”, for which the “probe-labelled cysteine peptide fold change” value was 0.312 (10 µM) and -0.591 (50 µM).

Take “WDR76_Q9H967_562_QEDCVIVGSMAHPR (UniProt Q9H967)”: the “probe-labelled cysteine peptide fold change” value (10 µM) came to 0.303 and the “probe-labelled cysteine peptide fold change” value (50 µM) came to 0.28.

“WRN_Q14191_1367_HGPDSGLQPSCDVNK (UniProt Q14191)”: the “probe-labelled cysteine peptide fold change” value reads like this: (10 µM) 0.14; (50 µM) -0.042.

Regarding “WDR12_Q9GZL7_184+185_ALHCCR (UniProt Q9GZL7)”, the “probe-labelled cysteine peptide fold change” value runs as follows: (10 µM) 0.152; (50 µM) 0.0914.

Regarding “WARS2_Q9UGM6_102_QSILDMTAVLLACGINPEK (UniProt Q9UGM6)”, the “probe-labelled cysteine peptide fold change” value was 0.474 (10 µM) and 0.305 (50 µM).

Regarding “XIAP_P98170_465+471_NIAIVFVPCGHLVTCK (UniProt P98170)”, the “probe-labelled cysteine peptide fold change” value reads like this: (10 µM) -0.0472; (50 µM) 0.0186.

As to “WDR82_Q6UXN9_287_HTGPITCLQFNPK (UniProt Q6UXN9)”, the “probe-labelled cysteine peptide fold change” value is -0.0421 (10 µM) and -0.119 (50 µM).

For “WDR24_Q96S15_189_VCFHPTEAHVLLSGSQDGFMK (UniProt Q96S15)”, the “probe-labelled cysteine peptide fold change” value reads like this: (10 µM) 0.0656; (50 µM) -0.217.

In the case of “WDR75_Q8IWA0_217_NNFTCVACHPTEDCIASGHMDGK (UniProt Q8IWA0)”, the “probe-labelled cysteine peptide fold change” value (10 µM) came to 0.0121 and the “probe-labelled cysteine peptide fold change” value (50 µM) was -0.205.

Take “WDR36_Q8NI36_866_SLSPDCGGSIEVMQSFLK (UniProt Q8NI36)”: the “probe-labelled cysteine peptide fold change” value (10 µM) was found to be 0.24 and the “probe-labelled cysteine peptide fold change” value (50 µM) turned out to be 0.233.

For “WDR76_Q9H967_562_FQAMWDPKQEDCVIVGSMAHPR (UniProt Q9H967)”, the “probe-labelled cysteine peptide fold change” value is -0.206 (10 µM) and -0.144 (50 µM).

In the case of “XIAP_P98170_471_NIAIVFVPCGHLVTCK (UniProt P98170)”, the “probe-labelled cysteine peptide fold change” value reads like this: (10 µM) -0.0244; (50 µM) 0.0441.

For “XIAP_P98170_12_TCVPADINKEEEFVEEFNR (UniProt P98170)”, the “probe-labelled cysteine peptide fold change” value runs as follows: (10 µM) -0.00651; (50 µM) -0.22.

With “WASHC4_Q2M389_1031_NFYIIVPPLTLNFVEHSISCK (UniProt Q2M389)”, the “probe-labelled cysteine peptide fold change” value (10 µM) is 0.0838 and the “probe-labelled cysteine peptide fold change” value (50 µM) is -0.00493.

As to “WDR33_Q9C0J8_996_GGQDCR (UniProt Q9C0J8)”, the “probe-labelled cysteine peptide fold change” value reads like this: (10 µM) 0.0273; (50 µM) 0.000158.

In the case of “WEE1_P30291_263_TYWNDSCGEDMEASDYELEDETRPAKR (UniProt P30291)”, the “probe-labelled cysteine peptide fold change” value is, setting by setting: (10 µM) -0.153; (50 µM) -0.442.

For XAB2_Q9HCS7_66_LLPCSYK (UniProt Q9HCS7), the “probe-labelled cysteine peptide fold change” value is, setting by setting: (10 µM) -0.0825; (50 µM) -0.0673.

With “WDR3_Q9UNX4_70_QEVTCLCPSPDGLHLAVGYEDGSIR (UniProt Q9UNX4)”, the “probe-labelled cysteine peptide fold change” value (10 µM) is 0.137 and the “probe-labelled cysteine peptide fold change” value (50 µM) turned out to be 0.0953.

As for “WDR66_Q8TBY9_567_SNYPPDCTLK (UniProt Q8TBY9)”, the “probe-labelled cysteine peptide fold change” value runs as follows: (10 µM) 0.267; (50 µM) -0.194.

“WDHD1_O75717_598_GTGFDGDQCLGVQLLELGK (UniProt O75717)”: the “probe-labelled cysteine peptide fold change” value is 0.063 (10 µM) and 0.127 (50 µM).

Turning to “XPNPEP1_Q9NQW7_279_ALCADLSPR (UniProt Q9NQW7)”, the “probe-labelled cysteine peptide fold change” value was -0.0326 (10 µM) and 0.0407 (50 µM).

For the target “WARS_P23381_309_DRTDIQCLIPCAIDQDPYFR (UniProt P23381)”, the “probe-labelled cysteine peptide fold change” value by setting is: (10 µM) 0.0843; (50 µM) 0.00831.

For the target “WDFY4_Q6ZS81_88_AWEHSVGIICFPSLQR (UniProt Q6ZS81)”, the “probe-labelled cysteine peptide fold change” value (10 µM) is -0.125 and the “probe-labelled cysteine peptide fold change” value (50 µM) was 0.0965.

In the case of “WDR61_Q9GZS3_266_TCVHTFFDHQDQVWGVK (UniProt Q9GZS3)”, the “probe-labelled cysteine peptide fold change” value is, setting by setting: (10 µM) -0.00305; (50 µM) 0.0473.

Regarding “WHAMM_Q8TF30_435_EKQDEVVYYDPCENPEELK (UniProt Q8TF30)”, the “probe-labelled cysteine peptide fold change” value reads like this: (10 µM) 0.196; (50 µM) 0.0782.

For the target “WDR77_Q9BQA1_26_EWNLPPNAPACMER (UniProt Q9BQA1)”, the “probe-labelled cysteine peptide fold change” value is, setting by setting: (10 µM) -0.108; (50 µM) -0.0635.

On to “WDR44_Q5JSH3_147_CFPSDETCEKPVDETTK (UniProt Q5JSH3)”, for which the “probe-labelled cysteine peptide fold change” value (10 µM) is -0.175 and the “probe-labelled cysteine peptide fold change” value (50 µM) was -0.125.

Consider “WDR6_Q9NNW5_577_QGVTSVTCHGGYVYTTGR (UniProt Q9NNW5)”, for which the “probe-labelled cysteine peptide fold change” value is, setting by setting: (10 µM) -0.0117; (50 µM) -0.0183.

Turning to “WDFY3_Q8IZQ1_2094_SQGLSLDAVYHCLNR (UniProt Q8IZQ1)”, the “probe-labelled cysteine peptide fold change” value is, setting by setting: (10 µM) 0.0537; (50 µM) 0.108.

Consider “WDR6_Q9NNW5_981_LGTPSLTLQAHSCGINSLHTLPTR (UniProt Q9NNW5)”, for which the “probe-labelled cysteine peptide fold change” value (10 µM) is 0.137 and the “probe-labelled cysteine peptide fold change” value (50 µM) came out at 0.138.

Take “WDR92_Q96MX6_184_VVCAGYDNGDIK (UniProt Q96MX6)”: the “probe-labelled cysteine peptide fold change” value came to 0.0641 (10 µM) and 0.172 (50 µM).

As to “WDFY4_Q6ZS81_878_QVMCEAGLLGTLMASCHR (UniProt Q6ZS81)”, the “probe-labelled cysteine peptide fold change” value runs as follows: (10 µM) 0.0899; (50 µM) -0.0334.

As for “WDR43_Q15061_372_EPHMCLVR (UniProt Q15061)”, the “probe-labelled cysteine peptide fold change” value reads like this: (10 µM) -0.0214; (50 µM) -0.0894.

“WDR19_Q8NEZ3_813_EHDEACLAGVAQMSIR (UniProt Q8NEZ3)”: the “probe-labelled cysteine peptide fold change” value reads like this: (10 µM) 0.423; (50 µM) 0.102.
